Among the data in PMC7010728 are binding values, retold here.

Protein sequences, listed by entry. Tags and fused reporters are not part of them.
UniProt Q9Y4E1: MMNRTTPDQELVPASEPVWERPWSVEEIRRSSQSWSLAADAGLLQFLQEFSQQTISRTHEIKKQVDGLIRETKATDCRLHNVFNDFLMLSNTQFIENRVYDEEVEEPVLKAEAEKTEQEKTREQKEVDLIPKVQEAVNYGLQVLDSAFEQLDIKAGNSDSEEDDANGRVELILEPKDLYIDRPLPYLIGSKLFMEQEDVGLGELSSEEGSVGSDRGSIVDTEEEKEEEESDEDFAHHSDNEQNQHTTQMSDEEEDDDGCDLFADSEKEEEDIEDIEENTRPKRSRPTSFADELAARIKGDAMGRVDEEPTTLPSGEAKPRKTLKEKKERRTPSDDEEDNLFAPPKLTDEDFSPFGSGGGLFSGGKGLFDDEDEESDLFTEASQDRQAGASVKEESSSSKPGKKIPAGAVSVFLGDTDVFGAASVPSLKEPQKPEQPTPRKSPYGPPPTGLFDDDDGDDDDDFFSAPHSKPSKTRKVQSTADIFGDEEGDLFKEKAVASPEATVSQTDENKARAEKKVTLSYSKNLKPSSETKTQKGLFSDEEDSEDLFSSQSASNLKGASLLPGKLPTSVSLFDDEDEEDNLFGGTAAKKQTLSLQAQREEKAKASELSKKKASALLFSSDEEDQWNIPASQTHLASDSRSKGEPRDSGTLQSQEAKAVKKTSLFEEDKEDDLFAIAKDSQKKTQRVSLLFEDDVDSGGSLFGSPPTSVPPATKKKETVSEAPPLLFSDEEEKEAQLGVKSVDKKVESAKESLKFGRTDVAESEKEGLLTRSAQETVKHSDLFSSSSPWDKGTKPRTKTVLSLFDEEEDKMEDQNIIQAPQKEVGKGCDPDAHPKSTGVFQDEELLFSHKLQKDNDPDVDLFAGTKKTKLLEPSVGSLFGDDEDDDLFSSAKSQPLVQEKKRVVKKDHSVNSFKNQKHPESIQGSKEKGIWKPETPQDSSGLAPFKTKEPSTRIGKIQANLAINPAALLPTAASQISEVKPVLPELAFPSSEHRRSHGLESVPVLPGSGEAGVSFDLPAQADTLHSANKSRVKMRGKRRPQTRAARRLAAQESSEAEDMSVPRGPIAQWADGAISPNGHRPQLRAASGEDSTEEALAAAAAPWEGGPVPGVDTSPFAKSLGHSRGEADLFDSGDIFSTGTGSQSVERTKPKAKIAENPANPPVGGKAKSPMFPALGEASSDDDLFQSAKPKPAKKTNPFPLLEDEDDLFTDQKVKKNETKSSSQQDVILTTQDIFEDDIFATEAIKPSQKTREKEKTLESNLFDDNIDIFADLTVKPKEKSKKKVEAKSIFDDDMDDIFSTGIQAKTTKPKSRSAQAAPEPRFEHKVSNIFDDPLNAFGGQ
UniProt O60826: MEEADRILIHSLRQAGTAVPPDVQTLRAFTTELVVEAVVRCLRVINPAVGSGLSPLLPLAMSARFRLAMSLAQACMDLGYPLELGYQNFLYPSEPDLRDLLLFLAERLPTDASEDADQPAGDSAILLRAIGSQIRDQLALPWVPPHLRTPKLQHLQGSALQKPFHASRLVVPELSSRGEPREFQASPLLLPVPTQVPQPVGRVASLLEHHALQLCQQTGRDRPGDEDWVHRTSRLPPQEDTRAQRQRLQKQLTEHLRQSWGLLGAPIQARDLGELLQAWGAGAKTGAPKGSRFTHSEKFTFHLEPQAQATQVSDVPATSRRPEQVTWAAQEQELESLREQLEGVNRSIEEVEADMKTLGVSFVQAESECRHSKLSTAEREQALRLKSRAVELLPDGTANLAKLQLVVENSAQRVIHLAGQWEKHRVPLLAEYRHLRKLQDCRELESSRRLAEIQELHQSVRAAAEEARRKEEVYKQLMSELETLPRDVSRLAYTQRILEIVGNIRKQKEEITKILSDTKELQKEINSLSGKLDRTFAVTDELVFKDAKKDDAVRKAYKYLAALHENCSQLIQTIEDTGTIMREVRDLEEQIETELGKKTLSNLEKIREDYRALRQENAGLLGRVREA
UniProt Q567U6: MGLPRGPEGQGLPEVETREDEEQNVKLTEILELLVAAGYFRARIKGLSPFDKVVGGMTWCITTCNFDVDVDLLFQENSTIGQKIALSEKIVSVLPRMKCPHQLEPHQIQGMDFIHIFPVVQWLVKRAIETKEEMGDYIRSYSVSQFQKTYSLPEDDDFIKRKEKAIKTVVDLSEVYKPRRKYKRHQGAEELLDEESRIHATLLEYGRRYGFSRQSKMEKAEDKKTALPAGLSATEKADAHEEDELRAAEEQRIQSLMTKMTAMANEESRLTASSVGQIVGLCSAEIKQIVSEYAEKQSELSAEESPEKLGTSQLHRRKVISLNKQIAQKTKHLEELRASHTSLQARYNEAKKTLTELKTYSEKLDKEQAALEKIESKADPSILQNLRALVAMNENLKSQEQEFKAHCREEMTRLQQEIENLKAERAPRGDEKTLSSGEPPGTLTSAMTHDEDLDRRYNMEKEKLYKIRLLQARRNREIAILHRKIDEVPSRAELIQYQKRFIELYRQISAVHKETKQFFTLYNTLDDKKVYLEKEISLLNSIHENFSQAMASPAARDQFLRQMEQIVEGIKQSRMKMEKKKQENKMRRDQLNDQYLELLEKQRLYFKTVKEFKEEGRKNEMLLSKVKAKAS

These are yes or no findings as the source states them, for the method shown. In cells and extracts the contact can be indirect. These calls come from enrichment with a bait or labelling near it, and not all partners need be listed.

The assay deals with FLAG-tagged WASHC2C (UniProt Q9Y4E1). The experiment in a line: affinity purification with mass spectrometry; anti-FLAG antibody on protein A/G magnetic beads, lysates of mock and HCMV-infected (72 hpi) fibroblasts transfected with FLAG-WASHC2C; 1 h at 4 °C; lysis buffer 20 mM HEPES-KOH pH 7.4, 110 mM potassium acetate, 0.1% Tween-20, 0.2% Triton X-100; co-isolated proteins quantified by targeted MS (PRM), normalised to WASHC2C peptides.

For the substance “coiled-coil domain-containing protein 22 (from UniProt O60826 1-627)”, the binding entry is “binds”.

For the substance “coiled-coil domain-containing protein 93 (from UniProt Q567U6 1-631)”, the binding result is “binds”.
